No constants are given. Whether binding was seen depends on the method and setting. In cells and extracts the contact can be indirect. A result given as binding can be weak or reduced; the word gives no strength. Sequences can lack the tags named with a protein.

The target of the test is T1, MKK5 fused to a half of Renilla luciferase (UniProt Q8RXG3).
T1 sequence: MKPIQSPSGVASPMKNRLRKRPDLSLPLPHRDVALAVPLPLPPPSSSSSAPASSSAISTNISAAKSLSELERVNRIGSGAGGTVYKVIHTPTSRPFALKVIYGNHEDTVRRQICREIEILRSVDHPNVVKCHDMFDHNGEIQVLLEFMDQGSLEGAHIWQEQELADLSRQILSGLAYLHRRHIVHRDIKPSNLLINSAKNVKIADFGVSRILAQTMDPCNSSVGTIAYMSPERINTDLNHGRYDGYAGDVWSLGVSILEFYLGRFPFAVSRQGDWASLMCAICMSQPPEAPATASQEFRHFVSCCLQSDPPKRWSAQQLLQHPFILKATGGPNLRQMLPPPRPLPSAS
The experiment in a line: split reporter; split Renilla luciferase complementation in Arabidopsis protoplasts co-transformed with NLuc and CLuc fusions; luminescence read 12-16 h after transformation; with or without 100 or 200 uM SA (3 h).

“HopF2 fused to a half of Renilla luciferase”: the binding result is “binds”.

(Values after PMC4434903.)
